The subject of assay [1] is Human PDGF-DD. The settings on record: read-out: IC50 Calcium Flux, PDGF-DD; PASMC; 1 nM PDGF-DD constant. The protocol:
Upon reaching 100% confluency within each well, PDGF driven calcium flux was assessed via the FLIPR® Calcium 5 Assay Kit on the FLIPR Tetra System (Molecular Devices) following the manufacturer's protocol. In brief, complete media was replaced with 50 μL assay media (DMEM-0.1% BSA-1× Penicillin/Streptomycin/L-Glutamine). The Calcium 5 dye was then reconstituted in the supplied buffer in the presence of probenecid. […] Human PDGF-AA, PDGF-BB and PDGF-DD serial dilutions and inhibitory constants were generated on separate dosing plates. A 0.5 nM concentration of PDGF-BB, 1 nM concentration of PDGF-DD and a 3 nM concentration of PDGF-AA were chosen as constants to assess antibody and small molecule inhibition. […] Antibodies were pre-incubated with PDGF proteins for 30 minutes before addition onto the cells via the FLIPR tetra system. […] These calcium traces were analyzed for their Max-Min values using the SoftMax Pro Software (Molecular Devices).

The test system of assay [2] is PDGF-AA. The settings on record: read-out: IC50 Proliferation, PDGF-AA; PASMC; IncuCyte cell confluence at day 6.
Assay [3] concerns PDGF-DD. As to conditions: read-out: IC50 Proliferation, PDGF-DD; PASMC; IncuCyte cell confluence at day 6.

The structures appear in SMILES notation. pIC50: −log10 of the molar value.

For `Cc1ccc(NC(=O)c2ccc(CN3CCN(C)CC3)cc2)cc1Nc1nccc(-c2cccnc2)n1` [Imatinib], the pIC50 in assay [1] is 6.18; in assay [2], 6.96; in assay [3] it was 6.49.

(Values after patent publication US20240425574A1, “ANTI-PDGF-B ANTIBODIES AND PHARMACEUTICAL COMPOSITION THEREOF” (Regeneron Pharmaceuticals, Inc., priority 2021, published 2024).)
